Reference: article PMC12097062

Biological target: T1, Biotin-LACK156-173 (biotinylated 156-173 peptide of the Leishmania homolog of receptors for activated C kinase) (L. major)
T1 sequence (peptide, biotin (position not stated)): ICFSPSLEHPIVVSGSWD
Test: affinity purification with mass spectrometry; Biotin-LACK156-173 on streptavidin-coated magnetic beads, incubated with cell lysate (primary human RA-FLSs) at 4 °C for 12 h; eluate on SDS-PAGE, silver staining, bands identified by mass spectrometry; only the target purified

B1: Dolichyl-Diphosphooligosaccharide-Protein Glycosyltransferase Non-Catalytic Subunit (DDOST) (protein, UniProt P39656 43-456)
chain: SGPRTLVLLDNLNVRETHSLFFRSLKDRGFELTFKTADDPSLSLIKYGEFLYDNLIIFSPSVEDFGGNINVETISAFIDGGGSVLVAASSDIGDPLRELGSECGIEFDEEKTAVIDHHNYDISDLGQHTLIVADTENLLKAPTIVGKSSLNPILFRGVGMVADPDNPLVLDILTGSSTSYSFFPDKPITQYPHAVGKNTLLIAGLQARNNARVIFSGSLDFFSDSFFNSAVQKAAPGSQRYSQTGNYELAVALSRWVFKEEGVLRVGPVSHHRVGETAPPNAYTVTDLVEYSIVIQQLSNGKWVPFDGDDIQLEFVRIDPFVRTFLKKKGGKYSVQFKLPDVYGVFQFKVDYNRLGYTHLYSSTQVSVRPLQHTQYERFIPSAYPYYASAFSMMLGLFIFSIVFLHMKEKEKSD
For B1, the binding was “binds”.

These are yes or no findings as the source states them, for the method shown. Binding seen in cells or lysates may run through a third protein. These calls come from enrichment with a bait or labelling near it, and not all partners need be listed.
